For 62 molecules, AC50 results are on record in PubChem BioAssay AID445 (National Center for Advancing Translational Sciences (NCATS), 2006).

Some of the results follow. Further columns of the screen follow, without active or inactive calls. The list favours compounds with an active or inconclusive main result. Potencies come from curve fits of mixed quality, noted in brackets.

The test in a line: IkB Signaling. The following applies: ABC-DLBCL IkBa-CBG/CBR dual luciferase ratio (green luciferase fused to IkBa over red control in OCI-Ly3 lymphoma cells), 4 h. The essentials: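 Luminescence ratio of IκBα-fused green versus native red beetle luciferase in OCI-Ly3 cells, 4 h post-doxycycline with compound; red signal alone, scaled from basal (0%) to zero light (-100%), flagged nonspecific or cytotoxic effects.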
[1] abbreviates: measured here: control luc red channel unless noted.
Setting [2] is: measured here: IkB-luc green channel.
[3] abbreviates: measured here: control luc red channel.

For orientation: AC50 means the concentration at which the activity in the assay is half-maximal. With `CNC(=O)c1c(NC(=O)c2cc(=O)c3ccccc3o2)sc2c1CCC2`, the AC50 under setting [1] is 0.398 µM [falling, full curve].

As for `CCOC(=O)c1nnn(-c2nonc2N)c1-c1cccc2ccccc12`, the AC50 under setting [1] is 25.1 µM [falling, partial curve].

As to `CCCCNC(=O)CSc1c2c(nc3ccc(Cl)cc13)CCCC2`, under setting [1], the AC50 is 12.6 µM [falling, partial curve].

As to `COC(=O)C1=C(C)N(c2ccc(F)cc2)C(=O)C1`, under setting [1], the AC50 was 12.6 µM [falling, partial curve].

Turning to `Clc1ccc(-c2nnn(Cc3nc4ccccc4s3)n2)cc1`, under setting [1], the AC50 is 39.8 µM [falling, single point].

As for `COc1cccc(-c2nc(S(=O)(=O)c3ccccc3)c(NCc3ccccc3)o2)c1`, the AC50 under setting [1] was 7.94 µM [falling, full curve].

Regarding `COc1cccc(-c2cc(C(F)(F)F)nc(NCc3ccc(F)cc3)n2)c1`, the AC50 under setting [1] is 12.6 µM [falling, partial curve].

For `COc1ccc(C(=O)/C=C/c2cn(CC(O)CN(CC(C)C)CC(C)C)c3ccccc23)cc1OC` (stereo not given), under setting [1], the AC50 is 7.94 µM [falling, partial curve].

`O=C(Nc1nc2c(s1)CCc1ccccc1-2)c1cccs1`: the AC50 was 31.6 µM [rising, single point] under setting [2] and 1 µM [falling, partial curve] under setting [3].

Turning to `COc1ccc(O)c(C(=O)CC(=O)c2ccc(F)cc2)c1`, the AC50 under setting [1] was 12.6 µM [falling, partial curve].

For the molecule `CC1=C(C(=O)Nc2ccccc2)C(c2ccncc2)n2nc(SCc3ccccc3)nc2N1` (stereo not given), the AC50 under setting [1] was 2.51 µM [falling, single point].

Regarding `CC(C)c1ccc(NC(=O)CCS(=O)(=O)c2ccc(Br)s2)cc1`, under setting [1], the AC50 is 15.8 µM [falling, partial curve].

With `COc1ccc(N(CC(=O)Nc2ccc3c(c2)OCCO3)S(=O)(=O)c2c(C)noc2C)cc1`, under setting [1], the AC50 was 12.6 µM [falling, partial curve].

Consider `Cc1cccc2c1-c1sc(C(=O)NCc3ccccc3Cl)cc1CO2`, for which, under setting [1], the AC50 is 15.8 µM [falling, partial curve].

For `COc1cccc(NC(=O)c2cc(CN3CCOCC3)on2)c1`, under setting [1], the AC50 is 12.6 µM [falling, partial curve].

As to `CSc1cccc(NC(=O)CN(C)S(=O)(=O)c2ccc3c(c2)n(C)c(=O)c(=O)n3C)c1`, the AC50 under setting [1] was 20 µM [falling, single point].

For the molecule `COc1ccccc1N1CCN(C(=O)CSc2nc3ccccc3c(=O)n2CC2CCCO2)CC1` (stereo not given), the AC50 under setting [1] is 12.6 µM [falling, partial curve].

With `O=c1ccc2cc(S(=O)(=O)N3CCCC3)ccc2[nH]1`, under setting [1], the AC50 was 0.0126 µM [falling, full curve, poor fit].

Consider `C=CCn1c(=O)[nH]c2cc(C(=O)N3CCN(c4cccc(Cl)c4)CC3)ccc2c1=O`, for which the AC50 under setting [1] is 15.8 µM [falling, partial curve].

With `Cn1c(=O)cc(OCCCC(=O)Nc2ccccn2)c2ccccc21`, the AC50 under setting [1] was 31.6 µM [falling, partial curve].

Take `Fc1ccc(CNc2nc3c(-c4ccc(F)cc4)nnn3c3ccccc23)cc1`: under setting [1], the AC50 is 0.158 µM [falling, full curve].

Consider `COc1cc(C(=O)NCc2ccc3c(c2)CCN3C(=O)c2ccncc2)cc(OC)c1OC`, for which the AC50 under setting [1] is 39.8 µM [falling, single point].

For the molecule `Cc1ccc(NC(=O)NCCc2c(C)nn(C)c2C)c(Cl)c1`, under setting [1], the AC50 is 6.31 µM [rising, single point] [measured here: IkB-luc green channel].

For `COCCCNC(=O)CN1C(=O)c2c(c3ccccc3n2C)C1c1ccc(OC)cc1` (stereo not given), the half-maximal activity concentration (AC50) under setting [1] is 15.8 µM [falling, partial curve].

For the molecule `CCCCSc1ncnc2c1sc1nc(N3CCOCC3)c3c(c12)CCCC3`, the AC50 under setting [1] is 2.51 µM [rising, partial curve].

Turning to `Cc1[nH]nc2c1C(C(C)C)C(C#N)=C(N)O2` (stereo not given), under setting [1], the AC50 is 12.6 µM [falling, partial curve].

`COc1cc(CN2CCc3nc(Nc4ccc5c(c4)OCCO5)ncc3C2)cc(OC)c1OC`: the AC50 under setting [1] was 25.1 µM [falling, partial curve, poor fit].

`CCC(=O)Nc1sc2c(c1C(N)=O)CCC2`: under setting [1], the AC50 was 39.8 µM [falling, single point].

Turning to `COc1cccc(N2C(=O)CSC23C(=O)N(CC(=O)Nc2cc(C)ccc2C)c2ccccc23)c1` (stereo not given), the AC50 under setting [1] is 15.8 µM [falling, partial curve].

Regarding `CCCCCCSC1=C(C#N)C(c2ccc(O)cc2)CC(=O)N1` (stereo not given), the AC50 was 25.1 µM [falling, partial curve] under setting [2] and 15.8 µM [falling, partial curve] under setting [3].

As to `Cc1c(C(=O)N2CCOCC2)[nH]c2c1C(=O)CC(c1ccc(Cl)cc1)C2` (stereo not given), the AC50 under setting [1] is 15.8 µM [falling, partial curve].

On to `CCOC(=O)c1cc2c(=O)n3ccccc3nc2n(Cc2ccco2)c1=NC(=O)c1cc(C)cc(C)c1`, for which the AC50 under setting [1] was 1.58 µM [falling, full curve].

For `COC(=O)c1ccc(NC(=O)c2nn(C)c3c2CS(=O)(=O)c2ccccc2-3)cc1`, the AC50 under setting [1] is 15.8 µM [falling, partial curve].

On to `CCc1ccccc1NC(=O)CC(c1ccc(F)cc1)N1Cc2ccccc2C1=O` (stereo not given), for which the AC50 under setting [1] was 31.6 µM [falling, single point].

With `COc1ccc(CCNc2nc3c(c(=O)n(C)c(=O)n3C)n2Cc2ccc(F)cc2)cc1OC`, the AC50 under setting [1] was 20 µM [falling, partial curve].

For the molecule `COc1ccc2[nH]cc(CCNC(=O)Nc3ccccc3C)c2c1`, the AC50 under setting [1] was 10 µM [falling, partial curve].

With `Cc1ccc2sc(N3CCN(C(=O)C4COc5ccccc5O4)CC3)nc2c1C` (stereo not given), the AC50 under setting [1] is 0.0126 µM [rising, full curve, poor fit].

Turning to `O=C(Nc1c(C(=O)N2CCN(c3ccc(F)cc3)CC2)oc2ccccc12)c1ccco1`, under setting [1], the AC50 was 25.1 µM [falling, single point].

On to `COc1ccc(NC(=O)c2c(C)oc3ccc(O)c(CN4CCN(C)CC4)c23)cc1Cl`, for which the AC50 under setting [1] is 15.8 µM [falling, partial curve].

As to `COc1ccc(CCNC(=O)c2ccc(CS(=O)(=O)c3ccc(C)cc3)o2)cc1OC`, the AC50 under setting [1] was 31.6 µM [falling, partial curve].

On to `COc1cc(OC)cc(-c2cc3nc(C)c(CCC(=O)O)c(C)n3n2)c1`, for which, under setting [1], the AC50 is 0.398 µM [falling, full curve].

With `COc1ccc(-c2cnc(SCC(=O)Nc3ccc4c(c3)OCO4)n2Cc2ccco2)cc1`, the AC50 under setting [1] was 7.94 µM [falling, partial curve].

On to `Cc1ccc(-c2nnc(Nc3ccc(C(N)=O)cc3)c3ccccc23)cc1S(=O)(=O)N1CCCCC1`, for which the AC50 under setting [1] was 3.16 µM [falling, full curve].

As to `Cc1cccc(-n2ccnc2SCC(=O)Nc2ccccc2C(F)(F)F)c1`, the AC50 under setting [1] was 6.31 µM [falling, partial curve].

Take `C=CCc1c(C)nc(SC)nc1Nc1ccc(C(C)=O)cc1`: the AC50 under setting [1] is 15.8 µM [falling, partial curve].

Take `CCOC(=O)Cc1ccc(NC(=O)Nc2nnc(N3CCCCC3C)s2)cc1` (stereo not given): the AC50 under setting [1] is 25.1 µM [falling, partial curve].

With `COC(=O)c1ccc(NC(=O)c2c(-c3ccccc3)c(-c3ccccc3)nn(C)c2=O)cc1`, under setting [1], the AC50 was 39.8 µM [falling, single point].

`O=C(Nc1ccc2c(c1)CCCN2C(=O)c1cccs1)c1ccccc1C(F)(F)F`: the AC50 under setting [1] was 25.1 µM [falling, single point].

Regarding `CCCN(C(=O)c1cc2c(s1)-c1ccccc1OC2)c1ccc(C(C)C)cc1`, the AC50 under setting [1] is 25.1 µM [falling, single point].

Take `CCOC(=O)c1ccc(NC(=O)Nc2cc3c(cc2N2CCCCC2)n(CC)c(=O)n3CC)cc1`: the AC50 under setting [1] was 6.31 µM [falling, partial curve].

For the molecule `CCOC(=O)c1c(-c2ccccc2)csc1NC(=O)CSc1nnnn1C`, the AC50 under setting [1] is 25.1 µM [falling, single point].

As for `COc1ccc(Br)cc1CNCc1c(C(=O)O)c(C)n(Cc2ccccc2C)c1C`, under setting [1], the AC50 is 15.8 µM [falling, partial curve].

Regarding `COC(=O)c1ccc(/C(O)=C(\C#N)c2nc3ccccc3s2)cc1`, under setting [1], the AC50 is 0.158 µM [falling, full curve].

`Cc1cc2c(cc1S(=O)(=O)CCC(=O)N1CCN(c3ccccc3)CC1)OCC(=O)N2`: under setting [1], the AC50 is 3.16 µM [falling, single point].

With `COc1ccc(-c2nc(-c3ccccc3OC)no2)cc1OC`, the AC50 under setting [1] is 10 µM [falling, partial curve].

Take `COc1ccc(-c2nc3scc(CCNS(=O)(=O)c4cccs4)n3n2)cc1`: the AC50 is, setting by setting: under setting [2], 2.51 µM [rising, partial curve]; under setting [3], 3.16 µM [rising, partial curve].

On to `Cc1cccc(N2CCN(C(=O)CS(=O)(=O)Cc3nc(-c4ccccc4F)oc3C)CC2C)c1` (stereo not given), for which, under setting [1], the AC50 is 7.94 µM [falling, full curve].

For the molecule `COc1cc(OC)c(NC(=O)CCc2nc(C3=CCN(Cc4cccc(Cl)c4)CC3)no2)cc1Cl`, under setting [1], the AC50 is 20 µM [falling, partial curve, poor fit].

Regarding `CCc1ccc(-n2c(=O)c3sc4ccccc4c3n(CC(=O)NC3CCCC3)c2=O)cc1`, the AC50 under setting [1] was 1 µM [rising, full curve].

As for `CCc1ccc2c(c1)c(=O)c(S(=O)(=O)c1ccc(F)cc1)cn2CC(=O)Nc1ccccc1OC`, the AC50 under setting [1] is 25.1 µM [falling, single point].

On to `Cc1ccc(NC(=O)c2oc3ccccc3c2NC(=O)C2CCCCC2)cc1`, for which the AC50 under setting [1] was 25.1 µM [falling, single point].

Regarding `Cc1ccc(NC(=O)C2CCC(CNS(=O)(=O)c3cccs3)CC2)cc1C` (stereo not given), the AC50 under setting [1] was 3.98 µM [falling, partial curve].
